The hits were mostly taken out for another list; the other results follow. The source made the active and inactive calls. The rule behind the calls is not given here.
Target: Estrogen receptor (Homo sapiens) (UniProt P03372)
Assay: ERα coactivator peptide binding inhibitors, primary screen, biochemical, LOPAC library, TR-FRET (AID 694);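 note: receptor was agonist-bound with estradiol present during the assay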
Conditions: TR-FRET ERalpha-coactivator peptide binding, stronger effect = higher value

Sequences of proteins named here, by UniProt entry; tags and fusion partners are left off.
UniProt P03372, whole entry, looked up: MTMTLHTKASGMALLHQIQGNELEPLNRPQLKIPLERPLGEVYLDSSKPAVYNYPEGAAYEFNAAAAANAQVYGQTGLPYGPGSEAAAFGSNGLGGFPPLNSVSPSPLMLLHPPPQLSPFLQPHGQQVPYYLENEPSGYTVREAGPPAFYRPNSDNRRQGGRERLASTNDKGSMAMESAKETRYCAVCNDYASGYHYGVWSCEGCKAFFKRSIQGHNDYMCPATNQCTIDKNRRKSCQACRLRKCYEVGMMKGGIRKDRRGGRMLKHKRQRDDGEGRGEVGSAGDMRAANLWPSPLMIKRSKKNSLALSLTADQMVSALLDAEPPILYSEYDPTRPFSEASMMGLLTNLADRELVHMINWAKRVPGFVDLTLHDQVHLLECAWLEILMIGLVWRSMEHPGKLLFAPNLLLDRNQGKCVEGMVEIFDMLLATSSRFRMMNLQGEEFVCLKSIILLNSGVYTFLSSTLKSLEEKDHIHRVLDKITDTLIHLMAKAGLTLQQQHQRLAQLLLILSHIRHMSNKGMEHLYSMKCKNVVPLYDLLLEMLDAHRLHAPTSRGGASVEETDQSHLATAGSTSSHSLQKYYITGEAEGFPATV

Q: Which inhibition (at 45 µM) does the source give for CN1C2CCC1CC(OC(=O)C(O)c1ccccc1)C2 (configuration not stated) here?
A: inactive: 0.24%

Q: And the inhibition (inhibition, at 15 µM)?
A: -1.43%
